Assay results taken from paper doi:10.1101/258731.
These are yes or no findings as the source states them, for the method shown. In cells and extracts the contact can be indirect. Some results given as binding are weak or reduced against the parent protein; the word gives no strength.

Sequences of proteins named here, by UniProt entry; tags and fusion partners are left off.
UniProt P15307: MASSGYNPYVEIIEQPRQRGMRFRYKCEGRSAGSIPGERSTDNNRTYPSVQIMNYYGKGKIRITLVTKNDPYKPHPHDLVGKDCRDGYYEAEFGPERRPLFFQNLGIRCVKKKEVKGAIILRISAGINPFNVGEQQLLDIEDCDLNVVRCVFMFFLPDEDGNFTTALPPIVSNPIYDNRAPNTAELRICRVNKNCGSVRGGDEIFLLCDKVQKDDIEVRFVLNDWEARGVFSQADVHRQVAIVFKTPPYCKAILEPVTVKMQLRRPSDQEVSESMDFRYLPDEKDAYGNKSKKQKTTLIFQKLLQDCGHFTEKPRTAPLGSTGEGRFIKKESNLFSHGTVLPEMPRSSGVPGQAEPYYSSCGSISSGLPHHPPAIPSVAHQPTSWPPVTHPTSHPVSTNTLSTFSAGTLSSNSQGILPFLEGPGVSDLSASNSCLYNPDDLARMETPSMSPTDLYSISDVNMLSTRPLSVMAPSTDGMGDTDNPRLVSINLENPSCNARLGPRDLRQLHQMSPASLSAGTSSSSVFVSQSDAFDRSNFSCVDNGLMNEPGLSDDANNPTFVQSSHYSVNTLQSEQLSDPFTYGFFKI
UniProt P53996: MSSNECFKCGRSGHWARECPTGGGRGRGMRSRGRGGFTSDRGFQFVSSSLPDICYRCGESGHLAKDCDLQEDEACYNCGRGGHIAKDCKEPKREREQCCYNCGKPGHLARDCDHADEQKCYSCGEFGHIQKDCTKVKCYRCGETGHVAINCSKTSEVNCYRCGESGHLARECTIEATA

Target: c-Rel (mouse (endogenous in BMDMs)) (UniProt P15307)
Assay: co-IP

- binding: binds
Substance: Cellular nucleic acid binding protein (Cnbp) (from UniProt P53996 1-178)
